Binding data for 2 molecules are collected here from paper doi:10.1101/2021.03.08.434386.

Amino acid sequences for entries named in this document (tags omitted). Residues count along the entry.
UniProt P05790, residues 22-5263: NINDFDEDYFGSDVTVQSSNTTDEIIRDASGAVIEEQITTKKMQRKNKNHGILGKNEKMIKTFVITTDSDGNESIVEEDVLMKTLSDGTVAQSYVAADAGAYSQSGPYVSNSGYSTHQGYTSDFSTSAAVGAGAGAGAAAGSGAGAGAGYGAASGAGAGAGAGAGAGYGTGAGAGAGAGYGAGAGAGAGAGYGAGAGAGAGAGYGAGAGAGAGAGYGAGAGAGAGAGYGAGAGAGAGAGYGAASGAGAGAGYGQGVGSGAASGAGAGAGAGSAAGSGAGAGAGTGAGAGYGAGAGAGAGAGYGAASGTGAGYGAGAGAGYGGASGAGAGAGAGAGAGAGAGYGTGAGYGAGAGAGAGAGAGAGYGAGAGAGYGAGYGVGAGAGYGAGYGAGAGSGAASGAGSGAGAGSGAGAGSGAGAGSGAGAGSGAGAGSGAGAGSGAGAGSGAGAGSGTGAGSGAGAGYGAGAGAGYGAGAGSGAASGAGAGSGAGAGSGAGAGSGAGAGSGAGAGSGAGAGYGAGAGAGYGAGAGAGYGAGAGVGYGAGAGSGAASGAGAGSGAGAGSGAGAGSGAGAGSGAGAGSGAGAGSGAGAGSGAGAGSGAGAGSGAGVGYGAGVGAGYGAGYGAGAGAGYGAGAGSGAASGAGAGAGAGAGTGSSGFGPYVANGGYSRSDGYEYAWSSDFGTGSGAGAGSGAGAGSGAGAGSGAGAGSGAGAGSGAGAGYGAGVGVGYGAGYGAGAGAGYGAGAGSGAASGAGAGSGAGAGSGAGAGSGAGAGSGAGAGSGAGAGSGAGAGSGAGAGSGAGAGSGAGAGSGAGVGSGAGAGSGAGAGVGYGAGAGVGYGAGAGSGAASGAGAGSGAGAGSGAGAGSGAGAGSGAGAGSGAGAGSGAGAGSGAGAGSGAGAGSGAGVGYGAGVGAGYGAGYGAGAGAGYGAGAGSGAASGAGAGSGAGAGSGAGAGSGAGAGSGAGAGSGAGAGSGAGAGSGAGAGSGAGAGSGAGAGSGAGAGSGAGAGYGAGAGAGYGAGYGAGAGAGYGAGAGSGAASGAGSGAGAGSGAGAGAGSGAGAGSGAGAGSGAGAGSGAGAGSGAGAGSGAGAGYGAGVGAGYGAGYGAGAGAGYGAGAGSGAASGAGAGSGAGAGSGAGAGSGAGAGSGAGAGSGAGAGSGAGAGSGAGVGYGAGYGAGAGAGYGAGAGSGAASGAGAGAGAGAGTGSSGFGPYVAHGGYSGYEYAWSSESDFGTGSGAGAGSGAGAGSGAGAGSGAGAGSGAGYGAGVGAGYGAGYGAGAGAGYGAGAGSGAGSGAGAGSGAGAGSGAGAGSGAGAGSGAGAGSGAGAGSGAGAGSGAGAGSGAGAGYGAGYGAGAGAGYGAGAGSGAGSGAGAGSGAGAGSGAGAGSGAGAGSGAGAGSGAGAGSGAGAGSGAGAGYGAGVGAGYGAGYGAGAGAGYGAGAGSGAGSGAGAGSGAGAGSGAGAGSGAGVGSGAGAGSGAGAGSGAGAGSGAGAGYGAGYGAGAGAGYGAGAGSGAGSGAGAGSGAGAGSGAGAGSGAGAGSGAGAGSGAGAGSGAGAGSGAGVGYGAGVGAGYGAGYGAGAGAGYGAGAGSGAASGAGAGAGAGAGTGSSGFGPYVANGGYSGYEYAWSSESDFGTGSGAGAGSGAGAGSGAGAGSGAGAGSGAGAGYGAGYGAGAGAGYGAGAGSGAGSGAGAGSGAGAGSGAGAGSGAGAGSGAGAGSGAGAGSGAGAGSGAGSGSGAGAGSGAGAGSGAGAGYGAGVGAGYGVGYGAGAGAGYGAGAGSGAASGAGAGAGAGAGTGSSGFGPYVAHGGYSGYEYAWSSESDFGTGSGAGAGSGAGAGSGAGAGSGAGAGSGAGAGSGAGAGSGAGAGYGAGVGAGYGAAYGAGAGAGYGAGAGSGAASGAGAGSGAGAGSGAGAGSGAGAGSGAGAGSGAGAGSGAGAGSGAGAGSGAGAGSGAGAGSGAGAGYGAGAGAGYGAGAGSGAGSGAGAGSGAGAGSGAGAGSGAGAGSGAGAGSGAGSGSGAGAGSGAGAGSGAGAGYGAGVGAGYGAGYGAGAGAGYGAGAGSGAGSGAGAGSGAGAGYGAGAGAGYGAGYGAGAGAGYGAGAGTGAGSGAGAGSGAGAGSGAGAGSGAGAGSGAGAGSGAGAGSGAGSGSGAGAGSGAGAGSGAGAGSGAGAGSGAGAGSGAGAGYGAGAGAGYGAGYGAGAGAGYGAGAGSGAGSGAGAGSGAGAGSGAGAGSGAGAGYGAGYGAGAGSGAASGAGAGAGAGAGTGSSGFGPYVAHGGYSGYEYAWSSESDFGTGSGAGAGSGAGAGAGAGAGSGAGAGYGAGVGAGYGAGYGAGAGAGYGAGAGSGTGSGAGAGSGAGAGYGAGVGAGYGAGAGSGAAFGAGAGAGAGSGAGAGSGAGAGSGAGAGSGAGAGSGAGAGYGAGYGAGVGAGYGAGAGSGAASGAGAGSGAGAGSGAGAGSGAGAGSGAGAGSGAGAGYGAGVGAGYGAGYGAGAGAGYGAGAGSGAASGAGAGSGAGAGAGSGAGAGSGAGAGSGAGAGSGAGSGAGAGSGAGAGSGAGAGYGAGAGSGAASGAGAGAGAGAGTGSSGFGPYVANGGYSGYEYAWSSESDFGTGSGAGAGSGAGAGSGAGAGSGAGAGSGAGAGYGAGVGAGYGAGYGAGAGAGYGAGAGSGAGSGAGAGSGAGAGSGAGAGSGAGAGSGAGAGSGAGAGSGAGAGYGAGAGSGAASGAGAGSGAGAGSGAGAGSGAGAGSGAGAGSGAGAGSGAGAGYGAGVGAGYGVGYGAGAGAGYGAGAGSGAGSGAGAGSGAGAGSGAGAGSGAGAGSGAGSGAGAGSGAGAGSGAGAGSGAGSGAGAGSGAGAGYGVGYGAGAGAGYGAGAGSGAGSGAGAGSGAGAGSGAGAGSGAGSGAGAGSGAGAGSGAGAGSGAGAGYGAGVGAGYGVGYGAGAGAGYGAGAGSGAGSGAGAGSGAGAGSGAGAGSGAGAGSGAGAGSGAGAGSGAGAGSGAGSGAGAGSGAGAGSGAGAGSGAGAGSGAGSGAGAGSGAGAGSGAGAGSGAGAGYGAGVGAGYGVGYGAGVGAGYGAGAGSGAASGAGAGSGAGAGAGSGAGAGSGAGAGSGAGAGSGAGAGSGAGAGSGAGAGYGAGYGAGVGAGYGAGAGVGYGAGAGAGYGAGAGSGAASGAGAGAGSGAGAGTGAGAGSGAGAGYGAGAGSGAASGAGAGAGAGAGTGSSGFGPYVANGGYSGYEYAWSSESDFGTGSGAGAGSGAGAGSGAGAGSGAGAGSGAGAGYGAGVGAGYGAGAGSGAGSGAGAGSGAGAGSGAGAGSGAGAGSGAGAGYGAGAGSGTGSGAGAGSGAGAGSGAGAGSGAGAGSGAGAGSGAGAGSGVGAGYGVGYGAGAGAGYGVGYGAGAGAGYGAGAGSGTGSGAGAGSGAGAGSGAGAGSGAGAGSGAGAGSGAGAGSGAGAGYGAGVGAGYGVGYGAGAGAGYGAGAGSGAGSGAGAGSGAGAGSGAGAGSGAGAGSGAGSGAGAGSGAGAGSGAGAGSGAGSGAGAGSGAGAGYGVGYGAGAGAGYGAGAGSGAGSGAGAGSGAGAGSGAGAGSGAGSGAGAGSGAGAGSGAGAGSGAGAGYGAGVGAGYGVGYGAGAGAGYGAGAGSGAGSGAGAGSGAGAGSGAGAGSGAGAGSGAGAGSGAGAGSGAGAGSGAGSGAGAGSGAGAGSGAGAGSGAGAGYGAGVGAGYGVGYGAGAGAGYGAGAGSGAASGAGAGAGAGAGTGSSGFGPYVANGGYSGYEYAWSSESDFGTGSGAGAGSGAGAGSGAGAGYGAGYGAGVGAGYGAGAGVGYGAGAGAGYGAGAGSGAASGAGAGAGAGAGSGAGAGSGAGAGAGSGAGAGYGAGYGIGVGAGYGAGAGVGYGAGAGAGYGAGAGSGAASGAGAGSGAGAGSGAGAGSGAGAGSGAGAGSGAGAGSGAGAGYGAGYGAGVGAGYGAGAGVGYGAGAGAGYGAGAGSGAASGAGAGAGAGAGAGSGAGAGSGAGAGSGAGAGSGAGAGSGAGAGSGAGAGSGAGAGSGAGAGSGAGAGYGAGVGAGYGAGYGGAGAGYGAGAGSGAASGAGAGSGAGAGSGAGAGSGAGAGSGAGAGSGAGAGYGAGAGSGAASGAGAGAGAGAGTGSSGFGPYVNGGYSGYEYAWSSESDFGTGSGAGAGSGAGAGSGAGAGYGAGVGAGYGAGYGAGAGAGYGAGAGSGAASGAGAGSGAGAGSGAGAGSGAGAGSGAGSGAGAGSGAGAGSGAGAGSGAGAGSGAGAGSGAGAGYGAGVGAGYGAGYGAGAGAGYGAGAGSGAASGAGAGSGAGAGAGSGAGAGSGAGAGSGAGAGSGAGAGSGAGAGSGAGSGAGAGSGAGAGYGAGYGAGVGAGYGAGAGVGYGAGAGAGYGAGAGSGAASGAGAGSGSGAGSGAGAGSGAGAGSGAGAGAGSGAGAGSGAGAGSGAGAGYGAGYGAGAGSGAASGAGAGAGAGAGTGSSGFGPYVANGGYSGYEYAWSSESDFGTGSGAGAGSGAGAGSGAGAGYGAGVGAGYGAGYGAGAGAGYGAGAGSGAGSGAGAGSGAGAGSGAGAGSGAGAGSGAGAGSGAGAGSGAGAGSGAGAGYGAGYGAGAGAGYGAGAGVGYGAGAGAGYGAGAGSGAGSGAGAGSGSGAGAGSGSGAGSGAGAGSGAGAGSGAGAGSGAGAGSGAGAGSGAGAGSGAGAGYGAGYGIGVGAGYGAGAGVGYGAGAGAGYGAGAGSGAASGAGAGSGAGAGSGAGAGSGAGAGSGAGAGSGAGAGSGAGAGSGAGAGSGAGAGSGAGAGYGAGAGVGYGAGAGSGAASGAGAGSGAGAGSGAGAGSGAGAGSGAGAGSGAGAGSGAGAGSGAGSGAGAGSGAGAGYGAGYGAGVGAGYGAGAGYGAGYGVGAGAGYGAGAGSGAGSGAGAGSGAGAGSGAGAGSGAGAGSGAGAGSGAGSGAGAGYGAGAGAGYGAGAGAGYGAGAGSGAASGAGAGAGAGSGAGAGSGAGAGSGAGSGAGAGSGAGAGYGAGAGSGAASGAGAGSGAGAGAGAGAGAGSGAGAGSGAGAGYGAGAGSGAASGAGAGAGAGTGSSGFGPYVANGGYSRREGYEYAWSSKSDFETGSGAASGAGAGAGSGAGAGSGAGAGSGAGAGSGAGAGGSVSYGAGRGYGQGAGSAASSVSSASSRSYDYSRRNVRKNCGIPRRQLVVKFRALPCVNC

The target in this assay is fibroin heavy chain (Fib-H) (Bombyx mori (endogenous in the silk gland)) (UniProt P05790). Nature of the assay: native gel or EMSA.

Results are given in words; binding and its absence hold for the method and conditions named. Some binding calls cover weakened binding; strength is not graded here.

B1: P25 (protein, UniProt P04148 17-220)
chain: AGPPSPIYRPCYLDDYKCISDHLAANSKCIPGRGQIPSQYEIPVFQFEIPYFNATYVDHNLITRNHDQCRVSEFYDNVRTLKTVLTVDCPWLNFESNRTLAQHMSFKEDVVLSFYINGSYPLIRLTTVFDKGNNFDLCSAFTFADLAGGLPIFHINPNDQRTAQWLSKDLTLLHIYEREHIFGKRNWLARSFISRTLCDFGCQH
With B1, the binding result was “binds”.

B2: fibroin light chain (Fib-L) (protein, UniProt P21828 17-262)
chain: APSVTINQYSDNEIPRDIDDGKASSVISRAWDYVDDTDKSIAILNVQEILKDMASQGDYASQASAVAQTAGIIAHLSAGIPGDACAAANVINSYTDGVRSGNFAGFRQSLGPFFGHVGQNLNLINQLVINPGQLRYSVGPALGCAGGGRIYDFEAAWDAILASSDSSFLNEEYCIVKRLYNSRNSQSNNIAAYITAHLLPPVAQVFHQSAGSITDLLRGVGNGNDATGLVANAQRYIAQAASQVHV
In the case of B2, the binding entry was “binds”.
